These are yes or no findings as the source states them, for the method shown. Binding seen in cells or lysates may run through a third protein. Some entries that bind do so weakly or less than the wild type.
Molecular target: endogenous γ-synuclein (MDA-MB-231 cells) (human (endogenous in MDA-MB-231)) (UniProt O76070)
Assay: co-IP; MDA MB 231 lysate (150 mM NaCl, 20 mM HEPES, 2 mM MgCl2); rabbit anti-γ-synuclein antibody on Protein A beads, 4 hours at 4°C; blotted with anti-γ-synuclein and anti-PLCβ2

## endogenous phospholipase Cβ2 (MDA-MB-231 cells) (from UniProt Q00722 1-1185) (enzyme)
  binding: binds

— article PMC3414502
